This is one part of the list.

Chains of the proteins cited; added tags and fusions are not shown. Lines headed by an entry give the natural chain unless they say otherwise; changes in a name come on top.
UniProt Q8NB91: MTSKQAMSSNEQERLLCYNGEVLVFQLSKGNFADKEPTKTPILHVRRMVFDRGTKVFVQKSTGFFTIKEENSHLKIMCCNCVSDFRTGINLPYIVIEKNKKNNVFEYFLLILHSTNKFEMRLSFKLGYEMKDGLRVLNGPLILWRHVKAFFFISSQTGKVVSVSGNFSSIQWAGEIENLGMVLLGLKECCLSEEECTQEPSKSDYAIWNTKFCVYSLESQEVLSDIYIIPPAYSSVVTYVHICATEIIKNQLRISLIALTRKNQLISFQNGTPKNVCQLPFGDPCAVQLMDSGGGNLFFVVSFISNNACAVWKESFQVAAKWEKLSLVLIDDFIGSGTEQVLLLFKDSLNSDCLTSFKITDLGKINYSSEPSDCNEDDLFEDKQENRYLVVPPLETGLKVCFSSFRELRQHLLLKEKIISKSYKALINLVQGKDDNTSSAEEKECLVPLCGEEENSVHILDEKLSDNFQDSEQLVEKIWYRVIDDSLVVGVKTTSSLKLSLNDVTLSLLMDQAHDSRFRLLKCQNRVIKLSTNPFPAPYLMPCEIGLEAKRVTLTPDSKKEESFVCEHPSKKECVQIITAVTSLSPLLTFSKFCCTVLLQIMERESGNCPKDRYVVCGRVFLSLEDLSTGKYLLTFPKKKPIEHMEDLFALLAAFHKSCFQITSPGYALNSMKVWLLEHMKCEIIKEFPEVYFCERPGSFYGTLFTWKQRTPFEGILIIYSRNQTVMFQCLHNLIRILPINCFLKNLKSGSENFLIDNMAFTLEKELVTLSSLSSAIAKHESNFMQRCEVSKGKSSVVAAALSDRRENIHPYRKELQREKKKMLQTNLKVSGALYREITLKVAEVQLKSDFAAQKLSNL
UniProt Q9Y5Y0: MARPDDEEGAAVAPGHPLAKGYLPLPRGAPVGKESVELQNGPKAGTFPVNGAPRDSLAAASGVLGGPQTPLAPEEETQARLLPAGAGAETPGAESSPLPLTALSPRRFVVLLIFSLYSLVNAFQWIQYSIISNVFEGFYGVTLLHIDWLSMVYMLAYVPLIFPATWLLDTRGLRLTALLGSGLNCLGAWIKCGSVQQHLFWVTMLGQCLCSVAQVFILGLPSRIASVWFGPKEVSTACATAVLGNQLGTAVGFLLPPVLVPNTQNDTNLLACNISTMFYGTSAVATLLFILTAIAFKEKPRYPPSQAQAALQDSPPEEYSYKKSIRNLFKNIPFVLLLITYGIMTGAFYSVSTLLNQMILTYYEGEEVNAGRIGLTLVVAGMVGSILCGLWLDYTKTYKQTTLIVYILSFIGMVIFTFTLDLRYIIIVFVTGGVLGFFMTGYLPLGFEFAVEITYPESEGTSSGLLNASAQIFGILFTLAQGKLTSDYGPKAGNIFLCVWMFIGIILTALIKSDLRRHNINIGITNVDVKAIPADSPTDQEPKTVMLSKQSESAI
UniProt Q8N3X1: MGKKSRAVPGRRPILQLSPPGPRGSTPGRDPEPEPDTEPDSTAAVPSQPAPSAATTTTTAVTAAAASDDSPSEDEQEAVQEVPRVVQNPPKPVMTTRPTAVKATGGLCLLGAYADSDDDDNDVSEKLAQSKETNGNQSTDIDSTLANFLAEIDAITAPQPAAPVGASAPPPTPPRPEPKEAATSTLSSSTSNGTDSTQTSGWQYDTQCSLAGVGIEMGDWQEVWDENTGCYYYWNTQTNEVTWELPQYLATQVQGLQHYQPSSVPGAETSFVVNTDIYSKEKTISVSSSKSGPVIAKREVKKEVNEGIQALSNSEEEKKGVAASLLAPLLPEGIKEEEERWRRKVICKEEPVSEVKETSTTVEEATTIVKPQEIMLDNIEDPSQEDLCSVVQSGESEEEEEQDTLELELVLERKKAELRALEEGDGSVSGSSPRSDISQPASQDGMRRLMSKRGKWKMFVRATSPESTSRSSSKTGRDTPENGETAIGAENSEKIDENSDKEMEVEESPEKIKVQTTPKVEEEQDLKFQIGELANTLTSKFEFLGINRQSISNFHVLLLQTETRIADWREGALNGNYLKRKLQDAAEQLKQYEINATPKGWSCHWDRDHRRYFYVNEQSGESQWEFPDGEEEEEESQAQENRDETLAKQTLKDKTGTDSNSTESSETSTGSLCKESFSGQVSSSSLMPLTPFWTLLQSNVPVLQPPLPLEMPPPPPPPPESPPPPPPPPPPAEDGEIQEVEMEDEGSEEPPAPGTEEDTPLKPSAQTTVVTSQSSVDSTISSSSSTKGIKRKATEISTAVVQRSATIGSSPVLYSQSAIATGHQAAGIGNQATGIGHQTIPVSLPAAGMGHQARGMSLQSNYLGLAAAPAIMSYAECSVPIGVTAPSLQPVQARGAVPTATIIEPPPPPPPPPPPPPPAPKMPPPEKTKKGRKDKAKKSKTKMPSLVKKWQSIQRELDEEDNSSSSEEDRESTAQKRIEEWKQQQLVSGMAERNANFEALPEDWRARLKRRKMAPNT
UniProt Q52LJ0: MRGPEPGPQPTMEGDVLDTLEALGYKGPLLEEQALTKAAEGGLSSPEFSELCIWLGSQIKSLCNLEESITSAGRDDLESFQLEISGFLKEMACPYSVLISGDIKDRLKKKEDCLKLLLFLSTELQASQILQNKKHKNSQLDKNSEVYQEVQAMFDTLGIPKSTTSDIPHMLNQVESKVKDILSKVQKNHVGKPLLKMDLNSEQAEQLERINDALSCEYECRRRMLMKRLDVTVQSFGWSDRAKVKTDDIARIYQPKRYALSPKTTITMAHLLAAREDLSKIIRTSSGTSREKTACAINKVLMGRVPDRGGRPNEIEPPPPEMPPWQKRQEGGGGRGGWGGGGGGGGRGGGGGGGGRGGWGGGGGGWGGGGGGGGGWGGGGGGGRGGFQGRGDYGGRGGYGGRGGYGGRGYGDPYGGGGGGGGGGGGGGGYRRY
UniProt Q96IG2: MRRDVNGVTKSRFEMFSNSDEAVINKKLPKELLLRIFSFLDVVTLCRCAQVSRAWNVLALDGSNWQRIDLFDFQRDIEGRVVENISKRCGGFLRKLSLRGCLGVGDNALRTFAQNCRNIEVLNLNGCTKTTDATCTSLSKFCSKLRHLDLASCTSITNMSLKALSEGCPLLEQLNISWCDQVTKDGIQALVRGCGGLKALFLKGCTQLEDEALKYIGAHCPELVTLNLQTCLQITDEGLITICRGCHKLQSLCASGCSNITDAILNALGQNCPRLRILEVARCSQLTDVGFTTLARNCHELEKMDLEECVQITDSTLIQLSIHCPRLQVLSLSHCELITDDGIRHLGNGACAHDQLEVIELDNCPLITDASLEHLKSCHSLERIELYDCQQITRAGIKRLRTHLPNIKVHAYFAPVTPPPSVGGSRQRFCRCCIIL
UniProt Q96ME1: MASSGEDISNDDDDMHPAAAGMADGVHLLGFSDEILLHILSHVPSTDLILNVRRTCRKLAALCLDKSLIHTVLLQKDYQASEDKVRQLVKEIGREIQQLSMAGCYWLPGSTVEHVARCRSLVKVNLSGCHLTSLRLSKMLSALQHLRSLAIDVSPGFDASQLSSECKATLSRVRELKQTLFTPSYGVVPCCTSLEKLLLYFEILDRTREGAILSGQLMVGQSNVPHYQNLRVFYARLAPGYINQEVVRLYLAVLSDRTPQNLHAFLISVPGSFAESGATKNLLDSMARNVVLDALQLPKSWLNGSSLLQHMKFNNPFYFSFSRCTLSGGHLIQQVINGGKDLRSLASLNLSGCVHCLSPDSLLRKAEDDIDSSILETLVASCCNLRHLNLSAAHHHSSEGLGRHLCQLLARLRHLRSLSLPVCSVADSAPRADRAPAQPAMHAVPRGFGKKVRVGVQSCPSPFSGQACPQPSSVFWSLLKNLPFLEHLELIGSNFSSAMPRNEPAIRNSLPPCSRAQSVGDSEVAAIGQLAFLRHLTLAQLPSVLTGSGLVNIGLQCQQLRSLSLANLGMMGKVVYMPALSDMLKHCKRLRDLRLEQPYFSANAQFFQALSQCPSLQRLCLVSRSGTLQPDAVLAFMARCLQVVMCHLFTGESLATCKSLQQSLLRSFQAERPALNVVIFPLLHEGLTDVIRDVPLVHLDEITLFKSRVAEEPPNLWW
UniProt Q96CP2: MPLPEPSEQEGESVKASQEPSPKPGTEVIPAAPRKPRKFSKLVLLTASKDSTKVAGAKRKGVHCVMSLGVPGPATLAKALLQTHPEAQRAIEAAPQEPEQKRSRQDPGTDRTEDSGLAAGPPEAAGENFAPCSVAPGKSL
UniProt P62942, whole entry, looked up: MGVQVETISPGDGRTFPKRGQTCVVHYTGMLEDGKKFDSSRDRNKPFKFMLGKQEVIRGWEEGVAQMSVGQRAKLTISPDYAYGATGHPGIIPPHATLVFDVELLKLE
UniProt Q9UKT4: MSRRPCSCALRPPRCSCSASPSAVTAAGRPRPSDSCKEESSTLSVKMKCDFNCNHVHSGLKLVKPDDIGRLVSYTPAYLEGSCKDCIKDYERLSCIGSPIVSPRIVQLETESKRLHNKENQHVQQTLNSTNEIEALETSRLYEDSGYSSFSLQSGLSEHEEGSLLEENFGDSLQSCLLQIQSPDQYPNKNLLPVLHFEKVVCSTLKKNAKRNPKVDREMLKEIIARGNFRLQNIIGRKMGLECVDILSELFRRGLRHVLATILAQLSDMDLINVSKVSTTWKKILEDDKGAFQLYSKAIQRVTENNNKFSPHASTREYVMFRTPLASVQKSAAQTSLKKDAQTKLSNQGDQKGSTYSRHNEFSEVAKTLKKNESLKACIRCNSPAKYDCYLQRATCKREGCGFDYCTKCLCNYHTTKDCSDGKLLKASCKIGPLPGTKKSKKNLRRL
UniProt O75955: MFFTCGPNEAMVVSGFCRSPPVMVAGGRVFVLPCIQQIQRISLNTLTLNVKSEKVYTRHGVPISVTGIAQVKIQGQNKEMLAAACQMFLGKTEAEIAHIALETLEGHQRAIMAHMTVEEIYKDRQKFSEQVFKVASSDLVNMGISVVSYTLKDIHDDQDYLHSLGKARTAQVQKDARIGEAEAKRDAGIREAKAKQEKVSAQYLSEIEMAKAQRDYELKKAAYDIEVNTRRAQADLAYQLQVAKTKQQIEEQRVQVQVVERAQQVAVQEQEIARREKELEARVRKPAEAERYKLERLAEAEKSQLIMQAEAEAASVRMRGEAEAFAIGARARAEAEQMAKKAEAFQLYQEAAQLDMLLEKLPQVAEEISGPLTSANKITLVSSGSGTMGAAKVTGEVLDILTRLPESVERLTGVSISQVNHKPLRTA
UniProt Q8NEZ5: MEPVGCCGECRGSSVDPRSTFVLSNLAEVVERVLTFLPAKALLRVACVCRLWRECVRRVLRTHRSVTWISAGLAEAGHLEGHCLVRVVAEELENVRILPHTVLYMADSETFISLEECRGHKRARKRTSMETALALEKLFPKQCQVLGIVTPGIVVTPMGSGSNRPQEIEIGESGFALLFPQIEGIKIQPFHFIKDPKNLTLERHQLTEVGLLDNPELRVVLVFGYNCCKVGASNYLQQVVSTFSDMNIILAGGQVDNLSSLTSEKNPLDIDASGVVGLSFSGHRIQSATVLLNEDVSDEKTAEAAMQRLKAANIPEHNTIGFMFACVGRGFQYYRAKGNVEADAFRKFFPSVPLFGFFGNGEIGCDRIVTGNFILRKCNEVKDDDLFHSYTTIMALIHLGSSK
UniProt O95302: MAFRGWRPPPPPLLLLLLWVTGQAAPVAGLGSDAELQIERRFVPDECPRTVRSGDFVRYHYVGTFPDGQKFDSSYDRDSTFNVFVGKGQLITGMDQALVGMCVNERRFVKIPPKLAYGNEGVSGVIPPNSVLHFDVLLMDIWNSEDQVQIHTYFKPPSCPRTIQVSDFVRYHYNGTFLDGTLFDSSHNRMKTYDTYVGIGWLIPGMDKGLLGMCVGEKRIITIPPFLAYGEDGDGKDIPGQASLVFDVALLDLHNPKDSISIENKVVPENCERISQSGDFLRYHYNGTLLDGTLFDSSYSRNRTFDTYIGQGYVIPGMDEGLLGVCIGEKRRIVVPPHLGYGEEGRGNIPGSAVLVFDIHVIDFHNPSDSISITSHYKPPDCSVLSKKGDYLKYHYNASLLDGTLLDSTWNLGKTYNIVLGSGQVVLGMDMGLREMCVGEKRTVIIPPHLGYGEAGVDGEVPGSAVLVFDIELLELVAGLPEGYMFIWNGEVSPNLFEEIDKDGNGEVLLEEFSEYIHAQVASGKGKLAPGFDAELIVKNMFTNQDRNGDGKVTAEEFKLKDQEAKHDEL
UniProt Q13451: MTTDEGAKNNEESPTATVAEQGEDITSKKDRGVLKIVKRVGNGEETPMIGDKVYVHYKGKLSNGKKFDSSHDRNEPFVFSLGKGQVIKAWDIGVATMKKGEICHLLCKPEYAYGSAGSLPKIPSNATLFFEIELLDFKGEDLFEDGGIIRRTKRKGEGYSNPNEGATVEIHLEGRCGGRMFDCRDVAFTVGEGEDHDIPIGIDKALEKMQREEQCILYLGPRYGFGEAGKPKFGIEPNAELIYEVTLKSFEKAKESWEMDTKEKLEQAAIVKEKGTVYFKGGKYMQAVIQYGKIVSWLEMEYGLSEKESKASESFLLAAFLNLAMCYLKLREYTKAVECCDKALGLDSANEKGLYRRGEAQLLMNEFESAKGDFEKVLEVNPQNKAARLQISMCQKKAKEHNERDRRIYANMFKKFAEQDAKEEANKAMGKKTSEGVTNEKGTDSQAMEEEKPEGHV

Compound in one experiment: CC[C@H](C)[C@@H](C(=O)N[C@@H]([C@@H](C)O)C(=O)N[C@@H](CC(C)C)C(=O)[C@]1(CO1)C)NC(=O)[C@H]([C@@H](C)CC)N(C)C(=O)C [epoxomicin]
The experiment is described as follows: log2 fold change, soluble protein after heating vs DMSO (PISA); higher = thermal stabilisation; K562 cells, 10 uM, 30 min; active = over 0.2 and 3.5 SD of the protein, either way, in both replicates (recomputed). The method in brief:
(§1)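 Values are thermal stability changes relative to control samples and are taken from duplicates. They are stated as log2 fold changes. Before quantification by TMTpro 16plex LC-MS/MS with equalised channel sums, K562 cells at 2×10^6 cells/mL were treated with 10 μM compound for 30 min, heated in aliquots for 3 min across 48°C-58°C, pooled, extracted in PBS with 0.5% NP-40 at 4°C, and centrifuged at 21,000xg for 90 min to give the soluble supernatant.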
Regarding FDX1 (UniProt P10109), the log2 fold change was inactive: 0.043.

Regarding FBXL12 (UniProt Q9NXK8), the log2 fold change was inactive: -0.024.

With FKBPL (UniProt Q9UIM3), the log2 fold change is inactive: 0.047.

As to FCGR2C (UniProt P31995), the log2 fold change is inactive: -0.032.

Consider FANCB (UniProt Q8NB91), for which the log2 fold change is inactive: 0.013.

Consider FIP1L1 (UniProt Q6UN15), for which the log2 fold change is inactive: -0.061.

For FLVCR1 (UniProt Q9Y5Y0), the log2 fold change is inactive: -0.141.

With FAM49B (UniProt Q9NUQ9), the log2 fold change is inactive: -0.024.

Take FAM210A (UniProt Q96ND0): the log2 fold change was inactive: 0.01.

Regarding FBXO30 (UniProt Q8TB52), the log2 fold change is inactive: 0.027.

FKBP2 (UniProt P26885): the log2 fold change is inactive: -0.017.

For FKBP15 (UniProt Q5T1M5), the log2 fold change was inactive: 0.012.

In the case of FAR1 (UniProt Q8WVX9), the log2 fold change is inactive: 0.07.

For the target FH (UniProt P07954), the log2 fold change is inactive: 0.035.

As for FLII (UniProt Q13045), the log2 fold change is inactive: 0.001.

Regarding FNBP4 isoform 2 (UniProt Q8N3X1), the log2 fold change was inactive: -0.011.

Consider FAM98B (UniProt Q52LJ0), for which the log2 fold change is inactive: -0.008.

Regarding FBXL20 (UniProt Q96IG2), the log2 fold change was inactive: -0.002.

For FBXL18 isoform 4 (UniProt Q96ME1), the log2 fold change is inactive: 0.049.

As for FLYWCH2 (UniProt Q96CP2), the log2 fold change was inactive: 0.033.

On to FAM76B (UniProt Q5HYJ3), for which the log2 fold change was inactive: -0.017.

For FASN (UniProt P49327), the log2 fold change was inactive: 0.027.

Regarding FKBP1A (UniProt P62942), the log2 fold change was inactive: 0.008.

Regarding FBLL1 (UniProt A6NHQ2), the log2 fold change was inactive: -0.119.

FBXO5 (UniProt Q9UKT4): the log2 fold change was inactive: 0.154.

As for FARSB (UniProt Q9NSD9), the log2 fold change was inactive: -0.017.

Take FLOT1 (UniProt O75955): the log2 fold change is inactive: 0.061.

As for FCSK isoform 2 (UniProt Q8N0W3), the log2 fold change was inactive: 0.031.

Consider FBXO22 (UniProt Q8NEZ5), for which the log2 fold change is inactive: 0.072.

FN3K (UniProt Q9H479): the log2 fold change is inactive: 0.001.

For the target FCGR2A (UniProt P12318), the log2 fold change is inactive: 0.006.

For FN3KRP (UniProt Q9HA64), the log2 fold change was inactive: -0.062.

For the target FAM98A (UniProt Q8NCA5), the log2 fold change is inactive: -0.103.

Turning to FKBP9 (UniProt O95302), the log2 fold change was inactive: -0.03.

Regarding FAU (UniProt P62861), the log2 fold change is inactive: -0.295.

On to FKBP5 (UniProt Q13451), for which the log2 fold change was inactive: 0.029.

For FDX2 (UniProt Q6P4F2), the log2 fold change was inactive: -0.088.

Take FAM32A (UniProt Q9Y421): the log2 fold change is inactive: -0.055.

Compound in a further experiment: CCn1c(C(=O)N(C2CC2)C2CC2)cc2c3c(ncn3C)c(Nc3cc(C)n(C)n3)nc21
The experiment is described as above. The method in brief: as §1
For FDX1 (UniProt P10109), the log2 fold change is inactive: 0.036.

FBXL12 (UniProt Q9NXK8): the log2 fold change is inactive: -0.052.

On to FKBPL (UniProt Q9UIM3), for which the log2 fold change is inactive: -0.002.

Turning to FCGR2C (UniProt P31995), the log2 fold change is inactive: 0.006.

On to FANCB (UniProt Q8NB91), for which the log2 fold change is inactive: -0.017.

Regarding FIP1L1 (UniProt Q6UN15), the log2 fold change is inactive: 0.005.

As for FLVCR1 (UniProt Q9Y5Y0), the log2 fold change was inactive: 0.051.

In the case of FAM49B (UniProt Q9NUQ9), the log2 fold change was inactive: -0.029.

For the target FAM210A (UniProt Q96ND0), the log2 fold change is inactive: -0.002.

Consider FBXO30 (UniProt Q8TB52), for which the log2 fold change is inactive: -0.017.

Turning to FKBP2 (UniProt P26885), the log2 fold change was inactive: 0.047.

In the case of FKBP15 (UniProt Q5T1M5), the log2 fold change was inactive: -0.114.

Regarding FAR1 (UniProt Q8WVX9), the log2 fold change is inactive: 0.015.

As for FH (UniProt P07954), the log2 fold change was inactive: 0.007.

Consider FLII (UniProt Q13045), for which the log2 fold change is inactive: -0.016.

As to FNBP4 isoform 2 (UniProt Q8N3X1), the log2 fold change is inactive: 0.016.

As to FAM98B (UniProt Q52LJ0), the log2 fold change is inactive: -0.048.

On to FBXL20 (UniProt Q96IG2), for which the log2 fold change was inactive: -0.047.

As for FBXL18 isoform 4 (UniProt Q96ME1), the log2 fold change is inactive: -0.027.

As for FLYWCH2 (UniProt Q96CP2), the log2 fold change was inactive: -0.019.

In the case of FAM76B (UniProt Q5HYJ3), the log2 fold change is inactive: -0.014.

FASN (UniProt P49327): the log2 fold change was inactive: -0.005.

For the target FKBP1A (UniProt P62942), the log2 fold change is inactive: -0.187.

As for FBLL1 (UniProt A6NHQ2), the log2 fold change is inactive: 0.044.

Take FBXO5 (UniProt Q9UKT4): the log2 fold change is inactive: 0.

FARSB (UniProt Q9NSD9): the log2 fold change was inactive: -0.019.

With FLOT1 (UniProt O75955), the log2 fold change was inactive: -0.007.

For FCSK isoform 2 (UniProt Q8N0W3), the log2 fold change was inactive: 0.006.

As to FBXO22 (UniProt Q8NEZ5), the log2 fold change is inactive: -0.04.

On to FN3K (UniProt Q9H479), for which the log2 fold change was inactive: -0.003.

For FCGR2A (UniProt P12318), the log2 fold change is inactive: -0.042.

Turning to FN3KRP (UniProt Q9HA64), the log2 fold change was inactive: 0.032.

Consider FAM98A (UniProt Q8NCA5), for which the log2 fold change is inactive: -0.098.

As for FKBP9 (UniProt O95302), the log2 fold change is inactive: -0.013.

Take FAU (UniProt P62861): the log2 fold change was inactive: 0.006.

Consider FKBP5 (UniProt Q13451), for which the log2 fold change is inactive: -0.083.

On to FDX2 (UniProt Q6P4F2), for which the log2 fold change is inactive: -0.052.

With FAM32A (UniProt Q9Y421), the log2 fold change was inactive: 0.004.
